# Data from publication PMC7819943, “Rice protein-binding microarrays: a tool to detect cis-acting elements near promoter regions in rice”.
# This is one part of the list.
# Biological target: T1, OsSMF1 (Oryza sativa, UniProt Q6ZLB0 1-436)
# T1 sequence: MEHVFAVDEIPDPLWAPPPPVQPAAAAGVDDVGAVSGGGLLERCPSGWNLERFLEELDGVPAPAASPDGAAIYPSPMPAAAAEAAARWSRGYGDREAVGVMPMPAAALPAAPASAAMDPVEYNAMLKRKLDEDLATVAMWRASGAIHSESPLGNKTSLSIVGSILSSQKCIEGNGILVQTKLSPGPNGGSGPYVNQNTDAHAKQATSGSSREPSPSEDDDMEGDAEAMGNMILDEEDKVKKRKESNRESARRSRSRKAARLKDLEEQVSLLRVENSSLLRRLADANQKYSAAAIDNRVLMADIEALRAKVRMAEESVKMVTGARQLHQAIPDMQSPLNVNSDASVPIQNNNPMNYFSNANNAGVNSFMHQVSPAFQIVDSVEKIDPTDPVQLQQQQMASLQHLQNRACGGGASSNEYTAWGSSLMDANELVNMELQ
# Assay: protein-binding microarray (RPBM); PBS, 2% BSA, 51.3 ng/ul salmon testes DNA, 50 uM zinc acetate, 200 nM TF, 25 C, 1 h; high values mean tight binding
# Details: protein: recombinant; tags: N-terminal polyhistidine and DsRed monomer fusion (pET32a); chain copies: 2; label: CyDye5-dUTP incorporated in the synthesized complementary strand; 3' TTTTT single-stranded linker to array surface; dsDNA, one strand shown
# Procedure, shortened: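 Transcription factors were each fused at the N-terminus to a polyhistidine tag plus DsRed and expressed in E. coli BL21-CodonPlus before Ni–NTA purification. Binding to a double-stranded custom Agilent array was carried out with 200 nM protein at 25 °C for 1 h in PBS, 2% BSA, salmon testes DNA and 50 µM zinc acetate. The binding signal is per-feature fluorescence intensity, in arbitrary units, on an Axon 4000B scanner.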
row,Sequence,binding signal
1,GTTGCTTCTCAAGGATCAATCTTATTTACCATTGAAGTGTCGGAGTCACCTAGTGCAG,21900 fluorescence intensity (a.u.)
2,TGGAGTTTGTACGATTGCAGGTTTGACGATGTTTGACTCGCGGAGTCACCTAGTGCAG,3170 fluorescence intensity (a.u.)
3,TCACCAAAGATGCCGACATGAGTGACGTCATCGTCGTTGTCGGAGTCACCTAGTGCAG,30200 fluorescence intensity (a.u.)
4,GTGCTGTTCCTGCATGTGCATGCATGTATGAGTACGTACGCGGAGTCACCTAGTGCAG,3910 fluorescence intensity (a.u.)
5,CGTCGCCGCCGGACACGCCACCGCTGGGGCTCTTGGACCACGGAGTCACCTAGTGCAG,3610 fluorescence intensity (a.u.)
6,ATTAGCCTTGTTTAAAATGACACATTGGAGTAAGAAGCACCGGAGTCACCTAGTGCAG,3600 fluorescence intensity (a.u.)
7,GAGAAACAGAGAGTGAGTACTAGTCAACCGACTTTGCCGACGGAGTCACCTAGTGCAG,3870 fluorescence intensity (a.u.)
8,GATTGCCACGTAAGCGCCACGTCAGTGCCACATCAGATGACGGAGTCACCTAGTGCAG,34200 fluorescence intensity (a.u.)
9,TTTGTGTAAGAATGATGTGTTATGCTCTTGAGCTACTTCCCGGAGTCACCTAGTGCAG,3580 fluorescence intensity (a.u.)
10,GGAGGTGGGGATGGTGGGAGGTTTTGGTTTGGTAAAATAGCGGAGTCACCTAGTGCAG,4910 fluorescence intensity (a.u.)
11,ATGAAGCTTGGCCGGCTTCATCGTAGCAAACCAGTTGGTCCGGAGTCACCTAGTGCAG,6680 fluorescence intensity (a.u.)
12,GAAGCCGTGGGGAGGTCGTGCTCGAGATCGCCGATGTGGACGGAGTCACCTAGTGCAG,3350 fluorescence intensity (a.u.)
13,CAGTGTGCCACCTACTCCTCCTACTCAAAGCCTCACCGCCCGGAGTCACCTAGTGCAG,3660 fluorescence intensity (a.u.)
14,TCGCTGTCTGACGTGGAGGTCAGGAGGCTCCGCGCGGACGCGGAGTCACCTAGTGCAG,8210 fluorescence intensity (a.u.)
15,AGAGGTTTCCGCCGCCATCGTCGGCGTCGGCGTCGGCGGCCGGAGTCACCTAGTGCAG,3300 fluorescence intensity (a.u.)
16,TTATGAAGTGAACTTATTCCACGTGGAAATCACTTCCGGTCGGAGTCACCTAGTGCAG,14700 fluorescence intensity (a.u.)
17,GGAGAGGGGAGAGCTCCTCGCCGCTGACATGTGGGCCATACGGAGTCACCTAGTGCAG,3700 fluorescence intensity (a.u.)
18,CTGCTCCTGAGGGGTAGGGAGGGAGGGGAAGGAGCACGTTCGGAGTCACCTAGTGCAG,3950 fluorescence intensity (a.u.)
19,GAGGTGGTCGGCCAGGCTGGTCTTGCCGTGGTCGACGTGCCGGAGTCACCTAGTGCAG,3600 fluorescence intensity (a.u.)
20,CCACACACCGACACGTGGGGCCACCATCAAAGCTGGTCCCCGGAGTCACCTAGTGCAG,8670 fluorescence intensity (a.u.)
21,CTTAATTAAGTTCATGCATCTTATCTAGATGCACGGTGCACGGAGTCACCTAGTGCAG,24600 fluorescence intensity (a.u.)

row,Sequence,binding signal
1,AATATGTCCAGATTCATAGTATTATGATGTGTCACATCCGCGGAGTCACCTAGTGCAG,6440 fluorescence intensity (a.u.)
2,ACTTAGGCGCCACGTCAGCCAATACCGCTATCAAAACCCCCGGAGTCACCTAGTGCAG,22100 fluorescence intensity (a.u.)
3,ACCGCTCTCAGTCACCTCCTCTACCCAACTCAAACGAACGCGGAGTCACCTAGTGCAG,4210 fluorescence intensity (a.u.)
4,GGAGTGCCTTGATGCTAGGCGGTAGGGACACGTGGGCACGCGGAGTCACCTAGTGCAG,13200 fluorescence intensity (a.u.)
5,TATACACACTATGTATTAAAACCCGTGCTACAGCTGGCTGCGGAGTCACCTAGTGCAG,3230 fluorescence intensity (a.u.)
6,ACACCACAACACCACGAAGCCGCGAGTCACCATCAGTGATCGGAGTCACCTAGTGCAG,3420 fluorescence intensity (a.u.)
7,CACAAGTACAAACAACTGCTAGCGTGGATATGTCTCACTACGGAGTCACCTAGTGCAG,3700 fluorescence intensity (a.u.)
8,TTATTGCACGTGGGAATTGCGGAGGCGTGGCATGGTAGTCCGGAGTCACCTAGTGCAG,5030 fluorescence intensity (a.u.)
9,TGCCATGAAATCGAGGTGAGTGGGTGTGTCACCTTCGAATCGGAGTCACCTAGTGCAG,4080 fluorescence intensity (a.u.)
10,GGCATCGACGTGAATGAGTCAGCAAGCGCGGGGTGCGCCTCGGAGTCACCTAGTGCAG,6300 fluorescence intensity (a.u.)
11,CCGACGAGCACATCCACGCCATCGTCATCGGCGTGCTCGGCGGAGTCACCTAGTGCAG,4520 fluorescence intensity (a.u.)
12,TCCGACCGGCTCAACGATGATCAAGACCTACCTGACCTTGCGGAGTCACCTAGTGCAG,3410 fluorescence intensity (a.u.)
13,AGATAGGCTTGGTCATCACCATTCCTCGACCAGCTCACGCCGGAGTCACCTAGTGCAG,3540 fluorescence intensity (a.u.)
14,TACTGGAGCCTGTGAGTGCGTAAACGTGGTGTAAGATATGCGGAGTCACCTAGTGCAG,3500 fluorescence intensity (a.u.)
15,TGGTTTAAAAGAACATTGATTGGATATTTCTTATAGTTCTCGGAGTCACCTAGTGCAG,23300 fluorescence intensity (a.u.)
16,ATCAATTTTGCAGGTTACCAAGGATGGGTGCCCAGTCATCCGGAGTCACCTAGTGCAG,5050 fluorescence intensity (a.u.)
17,GGAGAGCAGCACATCACGGCTGTCCACGTGGCCGCGCCGCCGGAGTCACCTAGTGCAG,16900 fluorescence intensity (a.u.)
18,CAGGCCAGAACAACTGCTCGGCCCGATAGGAGGGCCTACTCGGAGTCACCTAGTGCAG,55800 fluorescence intensity (a.u.)
19,TATCCGATTATATCATACCAGTATATTACATCATGGCGCCCGGAGTCACCTAGTGCAG,4270 fluorescence intensity (a.u.)
20,TTTCGGGGTTCCAATTTGAGTCACGCACATATTCTTCATCCGGAGTCACCTAGTGCAG,8490 fluorescence intensity (a.u.)
21,TCAGTAGTTGCTTCTCGCAACGTCACAGGCTTTAGATGCACGGAGTCACCTAGTGCAG,44200 fluorescence intensity (a.u.)

# A run of entries from further up:
row,Sequence,binding signal
5,CGTCGCCGCCGGACACGCCACCGCTGGGGCTCTTGGACCACGGAGTCACCTAGTGCAG,3610 fluorescence intensity (a.u.)
6,ATTAGCCTTGTTTAAAATGACACATTGGAGTAAGAAGCACCGGAGTCACCTAGTGCAG,3600 fluorescence intensity (a.u.)
7,GAGAAACAGAGAGTGAGTACTAGTCAACCGACTTTGCCGACGGAGTCACCTAGTGCAG,3870 fluorescence intensity (a.u.)
8,GATTGCCACGTAAGCGCCACGTCAGTGCCACATCAGATGACGGAGTCACCTAGTGCAG,34200 fluorescence intensity (a.u.)
9,TTTGTGTAAGAATGATGTGTTATGCTCTTGAGCTACTTCCCGGAGTCACCTAGTGCAG,3580 fluorescence intensity (a.u.)
10,GGAGGTGGGGATGGTGGGAGGTTTTGGTTTGGTAAAATAGCGGAGTCACCTAGTGCAG,4910 fluorescence intensity (a.u.)
11,ATGAAGCTTGGCCGGCTTCATCGTAGCAAACCAGTTGGTCCGGAGTCACCTAGTGCAG,6680 fluorescence intensity (a.u.)
12,GAAGCCGTGGGGAGGTCGTGCTCGAGATCGCCGATGTGGACGGAGTCACCTAGTGCAG,3350 fluorescence intensity (a.u.)
13,CAGTGTGCCACCTACTCCTCCTACTCAAAGCCTCACCGCCCGGAGTCACCTAGTGCAG,3660 fluorescence intensity (a.u.)
14,TCGCTGTCTGACGTGGAGGTCAGGAGGCTCCGCGCGGACGCGGAGTCACCTAGTGCAG,8210 fluorescence intensity (a.u.)
